Experimental data as given in PubChem BioAssay AID2685 (National Center for Advancing Translational Sciences (NCATS), 2010).
The list shows a part of the results. These are further read-outs of the screen, such as a control signal, another cell line or another target. No call is given for them. Most of these compounds were active or inconclusive in the main read-out, so they are no random draw. Words in brackets tell the shape of the fitted curve; partial curves, single points and poor fits give uncertain potencies.

Assay: qHTS Assay for Lipid Storage Modulators in Drosophila S3 Cells;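 as to cell number change: cells counted by Cell Tracker Red CMTPX staining in the red channel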
Details: BODIPY lipid droplet fluorescence, 18-24 h; for cell number change: measured here: cell count max response, cells fed with added oleic acid
Method in brief: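 Drosophila S3 cells loaded with oleic acid (400 uM, as added) and compounds at several concentrations; lipid droplets imaged by 488-nm laser-scanning cytometry, 500–530 nm intensity and object ratio to cell channel. Percent activity normalized to 20 uM Triacsin C.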

[1] = measured here: lipid fluorescence (Fed channel) AC50, cells fed with added oleic acid
[2] = measured here: cell number channel AC50, cells fed with added oleic acid

| Compound | cell number change [%] | AC50 [1] | AC50 [2] |
| --- | --- | --- | --- |
| CCOC1=C/C(=C/c2c(N)n3nc(CC(=O)N4CCCCC4)sc3nc2=O)C=CC1=O | 1.79 | 3.66 µM [falling, partial curve] |  |
| COc1ccc(NC(=O)c2nc[nH]c2C(=O)NCc2ccccc2)cc1 | 41.3 |  | 25.9 µM [rising, single point] |
| COC(=O)COc1ccc(S(=O)(=O)NCc2cccnc2)cc1C | -3.73 | 1.03 µM [falling, full curve] | 0.82 µM [falling, full curve] |
| c1ccc(-c2nc3ccccc3s2)nc1 | -31.6 | 29.1 µM [falling, single point] | 18.4 µM [falling, single point] |
| O=C(NCc1ccncc1)/C(=C\c1ccc(F)cc1)NC(=O)c1ccccc1 | 2.9 | 23.1 µM [falling, single point] |  |
| Cc1ccc(S(=O)(=O)N2CCCC2CNC(=O)C(=O)NCCN2CCOCC2)cc1 (configuration not stated) | -12.1 | 0.184 µM [falling, full curve, poor fit] |  |
| CCCC(NC(=O)CCc1c(C)c2cc3c4c(oc3c(C)c2oc1=O)CCCC4)C(=O)O (configuration not stated) | 8.51 | 8.2 µM [rising, partial curve] |  |
| CC(C)(C)OC(=O)NCC(=O)Oc1cc2oc(=O)cc(-c3ccccc3)c2cc1Cl | 16.6 | 20.6 µM [rising, partial curve] |  |
| CSc1ccc(S(=O)(=O)N2CCC(C(=O)Nc3cccnc3)CC2)cc1 | -17.1 | 0.1 µM [falling, full curve, poor fit] |  |
| O=S(=O)(c1cccc(NC(=S)N2CCN(c3ccccc3F)CC2)c1)C(F)F | 17.6 | 29.1 µM [rising, single point] |  |
| O=C(Oc1ccc2ccccc2c1)c1ccccc1 | -7.79 | 29.1 µM [falling, single point] |  |
| CCOC(=O)C1=C(Cc2ccc(Cl)cc2)C(=O)c2ccccc2C1=O | -96.4 | 4.61 µM [falling, single point] |  |
| COc1ccc([N+](=O)[O-])cc1NC(=O)C1C2C=CC(C2)C1C(=O)O (configuration not stated) | -17.1 |  |  |
| O=C(Nc1ccc(-c2nc3ncccc3o2)cc1)c1ccc([N+](=O)[O-])o1 | -0.427 | 0.291 µM [falling, full curve] |  |
| Cc1ccc(NC(=O)Cc2nc(COC(=O)C(C)NS(=O)(=O)c3ccc(C)cc3)cs2)cc1 (configuration not stated) | -1.38 | 0.00411 µM [rising, full curve, poor fit] |  |
| O=C(Cc1ccc(Br)cc1)Nc1ccccc1Cl | 8.33 | 29.1 µM [rising, single point] |  |
| CC(C)(C)NC(=O)NC(=O)COC(=O)COc1ccc2c(c1)CCC2 | -41.3 | 29.1 µM [falling, single point] | 3.66 µM [falling, single point] |
| COc1cc(CNc2ncn[nH]2)ccc1OCc1ccccc1C | 38.2 |  | 0.164 µM [rising, partial curve] |
| COc1cccc(C(=O)OCC(=O)NC(C)CCc2ccccc2)c1O (configuration not stated) | 18.5 | 20.6 µM [falling, single point] |  |
| COc1ccc(-c2cnnc(N/N=C/c3c(C)nn(-c4ccccc4)c3Cl)n2)cc1 | -0.74 |  |  |

| Compound | cell number change [%] | AC50 [1] | AC50 [2] |
| --- | --- | --- | --- |
| Cc1cc(NC(=O)CCC(=O)N(Cc2ccccc2)C2(C(=O)NC3CCCCC3)CCCC2)no1 | 9.11 | 0.13 µM [falling, partial curve, poor fit] |  |
| CN(C(=O)c1nc(-c2ccccc2)n(-c2ccccc2)n1)C1CCS(=O)(=O)C1 (configuration not stated) | -17.6 |  |  |
| CC(C)(C)c1ccc(-n2ncc3c2CCCC3NC(=O)c2csnn2)cc1 (configuration not stated) | -45 | 0.146 µM [falling, full curve] | 0.146 µM [falling, full curve, poor fit] |
| CCN(CC)CCN(Cc1cc2ccc(C)cc2[nH]c1=O)C(=S)Nc1ccccc1C(=O)OC | -22.8 | 29.1 µM [falling, single point] |  |
| CCN(CC(=O)Nc1ccc(OC)cc1)C(=O)COc1cccc2c1OC(C)(C)C2 |  | 0.82 µM [falling, partial curve] | 2.91 µM [falling, partial curve] |
| Brc1ccc2nc(-c3ccncc3)c(NC3CCCC3)n2c1 | -0.36 |  |  |
| CC(C)CCNC(=O)C(c1ccncc1)N(C(=O)Cn1nnc(-c2ccc(F)cc2)n1)c1ccccc1F (configuration not stated) | 75.6 | 20.6 µM [rising, single point] | 16.4 µM [rising, single point] |
| CN1Cc2c(N3CCOCC3)nc3sc(C(=O)c4ccc(Br)cc4)c(N)c3c2CC1(C)C | -49.2 | 29.1 µM [falling, single point] | 20.6 µM [falling, single point] |
| Cc1ccc(C(=O)NC2CCCCC2)cc1S(=O)(=O)N1CCCC1 | -29.2 | 6.51 µM [falling, single point] |  |
| CN1/C(=C\C(=O)C[n+]2cccc(Br)c2)C(C)(C)c2ccccc21 | -2.19 | 29.1 µM [falling, single point] |  |
| CC1=C(C(=O)Nc2ccc(Cl)cc2)C(c2ccncc2)C(C#N)=C(SCC(N)=O)N1 (configuration not stated) |  | 0.164 µM [rising, full curve, poor fit] | 0.164 µM [rising, full curve, poor fit] |
| CCC(c1nnnn1CCOC)N(Cc1cc2c(C)cc(C)cc2[nH]c1=O)CC1CCCO1 (configuration not stated) | -29.9 | 2.06 µM [falling, partial curve] |  |
| COc1ccccc1N=C(C)C1=C(O)CC(c2ccccc2)CC1=O (configuration not stated) | 8.28 | 29.1 µM [falling, single point] |  |
| COC(=O)c1ccc(N=Nc2ccccc2)cc1 | 14 |  |  |
| CCCCn1c(N)c(N(CCC(C)C)C(=O)C2=NN(c3ccccc3)C(=O)CC2)c(=O)[nH]c1=O | -7.27 | 0.411 µM [rising, partial curve, poor fit] |  |
| CCCCc1c(C)nn(-c2nnc3c4ccccc4n(C)c3n2)c1C | 39.4 |  | 18.4 µM [rising, single point] |
| O=C(O)Cc1c(C(=O)O)[nH]c2ccc(C(=O)O)cc12 | 0.367 | 0.291 µM [falling, full curve, poor fit] |  |
| CCOC(=O)N1CCN(C(=O)CN(c2cc(Cl)ccc2OC)S(=O)(=O)c2ccccc2)CC1 | -25.6 | 29.1 µM [falling, single point] |  |
| O=C(Nc1cccc(S(=O)(=O)N2CCOCC2)c1)C1CCN(S(=O)(=O)c2ccccc2)CC1 | 2.36 | 0.517 µM [falling, full curve, poor fit] |  |
| N#CC1=C2SCN(Cc3ccco3)CN2C(=O)CC1c1c(F)cccc1Cl (configuration not stated) | -5.45 | 0.116 µM [falling, full curve, poor fit] |  |

| Compound | cell number change [%] | AC50 [1] | AC50 [2] |
| --- | --- | --- | --- |
| CCCOc1ccc(/C=C/C(=O)Nc2ccc([N+](=O)[O-])cc2)cc1 | 19.2 | 0.0731 µM [rising, full curve, poor fit] |  |
| CCc1nnc(NC(=O)c2cccnc2SC)s1 | 66.3 |  | 18.4 µM [rising, single point] |
| CCCC(O)(c1ccccc1)C(CN1CCOCC1)c1ccccc1 (configuration not stated) | -43.7 | 18.4 µM [falling, single point] | 16.4 µM [falling, single point] |
| Cc1occc1C(=O)NNC(=O)c1ccc(Br)o1 | -15.4 | 2.59 µM [falling, full curve, poor fit] |  |
| Cc1cccc(C)c1NC(=O)CNC(=O)c1ccccc1OCc1ccccc1 | 7.23 |  | 1.03 µM [rising, partial curve] |
| Nc1ccccc1C(=O)N1CCC(O)(c2ccc(Cl)cc2)CC1 | 8.77 |  |  |
| Cc1cccc(N2CCN(S(=O)(=O)c3c(C)[nH]c(=O)[nH]c3=O)CC2)c1C | -4.99 |  |  |
| COCCn1c(C)cc(C(=O)CSc2nc3ccccc3s2)c1C | 1.38 | 0.411 µM [rising, partial curve] | 0.259 µM [rising, partial curve] |
| COc1ccc(C(=O)c2sc3nc(C)cc(-c4cccs4)c3c2N)cc1 | -1.75 | 20.6 µM [rising, single point] |  |
| O=C(CCc1nc2ccccc2c(=O)[nH]1)Nc1cc(Cl)ccc1N1CCCCC1 | 4.38 | 0.103 µM [rising, full curve, poor fit] | 6.51 µM [rising, partial curve] |
| Cc1cc(C)c(OCC(=O)Nc2cccc(O)c2)cc1C | -17.5 |  |  |
| CCCCC/C=C/C1=CC(=O)C[C@H](c2ccc3c(c2)OCO3)C1 | -15.8 | 16.4 µM [falling, single point] | 1.16 µM [falling, single point] |
| COCCCN1C(=O)/C(=C\c2cccs2)C(C(=O)OC)=C1C | 10.8 |  |  |
| O=C1CN(C(=O)c2ccccc2)C(c2ccc(F)cc2)c2cc(Br)ccc2N1 (configuration not stated) | -17.7 | 6.51 µM [falling, single point] |  |
| COc1ccc(C(=O)NCCc2c[nH]c3ccccc23)cc1 | -16.5 | 29.1 µM [rising, single point] |  |
| CCOC(=O)N1CCC(n2c(SCC(=O)c3ccccc3)nc3ccsc3c2=O)CC1 | -2.3 | 5.8 µM [rising, partial curve, poor fit] | 0.184 µM [rising, full curve, poor fit] |
| Cc1cc(Cl)c(S(=O)(=O)N2CCCC2)cc1OCC(=O)NC1CCCCC1 |  |  | 6.51 µM [rising, single point] |
| CC(=O)OC(C(=O)NC1CCCCC1)c1ccc(Cl)c(Cl)c1 (configuration not stated) | 0.332 | 0.731 µM [falling, single point] |  |

Five entries from above, comma-delimited:
Compound,cell number change [%],AC50 [1],AC50 [2]
O=C1CN(C(=O)c2ccccc2)C(c2ccc(F)cc2)c2cc(Br)ccc2N1 (configuration not stated),-17.7,"6.51 µM [falling, single point]",
COc1ccc(C(=O)NCCc2c[nH]c3ccccc23)cc1,-16.5,"29.1 µM [rising, single point]",
CCOC(=O)N1CCC(n2c(SCC(=O)c3ccccc3)nc3ccsc3c2=O)CC1,-2.3,"5.8 µM [rising, partial curve, poor fit]","0.184 µM [rising, full curve, poor fit]"
Cc1cc(Cl)c(S(=O)(=O)N2CCCC2)cc1OCC(=O)NC1CCCCC1,,,"6.51 µM [rising, single point]"
CC(=O)OC(C(=O)NC1CCCCC1)c1ccc(Cl)c(Cl)c1 (configuration not stated),0.332,"0.731 µM [falling, single point]",
